Test results from US20200207836A1.
Results are given in words; binding and its absence hold for the method and conditions named. A result given as binding can be weak or reduced; the word gives no strength.

Biological target: Nluc/AT1 (human)
Assay: BRET, live cells

binding: binds
Binder: LGTLALALGILGGLGTAALLIGVI (peptide, not shown: large carriers) [mCherry/RAGE338-361]
